Consider 55 sequences from the supplement of paper PMC10338343.

± gives the standard deviation. The entries are a selection whose mix differs from that of the whole data set. Many of these values have a large error.

The assay has as its system MIWI (PIWIL1) piRISC loaded with L1MC piRNA (30 nt). In words: pre-steady-state target cleavage rate (min^-1); MIWI and MILI are mouse PIWI proteins and EfPiwi is from a freshwater sponge; tags in brackets are library labels; higher = faster piRNA-guided slicing of the target. The note with it: guide: L1MC piRNA 5'p-UAACUAAAUACUAUGCAAGCUGUAGGUCCU
An outline of the steps:
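In Cleave-'n-Seq, a transcribed, DNA-blocked target RNA library (0.1 nM) was combined with 1 nM active affinity-purified piRISC bearing one synthetic guide, with or without 500 nM GTSF1 partner protein. Reactions ran in HEPES–potassium acetate buffer at 33 °C for 0–8 or 0–960 min. Uncleaved targets were sequenced and normalised to depth and to weakly complementary targets, three trials were pooled, and k3 was capped at 0.0001 min^-1. The pre-steady-state cleavage rate was obtained by fitting a burst-and-steady-state model.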

The mark [1] stands for this setting: auxiliary factor: none (no GTSF1).
The mark [2] stands for this setting: auxiliary factor: 500 nM mouse GTSF1.

Consider UCCUGGAUGUCGUAGCAUAGUAUAUAGUUA, for which the “pre-steady-state target cleavage rate” value under setting [1] was 0.000977 ± 0.0078.

Consider UCGACCUACAGCUUGCAUUCAAUUUACAAA, for which the “pre-steady-state target cleavage rate” value under setting [1] came to 0.000684 ± 0.0091.

For the sequence UCGACCUACAGCUUCCAUAGUAUUUACUUA, the “pre-steady-state target cleavage rate” value under setting [1] is 0.00109 ± 0.006.

As to UCCACCUACAGCUUGCAUAGUAUAAAGUAA, the “pre-steady-state target cleavage rate” value under setting [1] came to 0.00259 ± 0.0033.

Regarding AGGACCUACAGGAUGCAUAGUAUUUUCAAA, the “pre-steady-state target cleavage rate” value under setting [1] came to 0.00114 ± 0.0048.

For “UCCUGGAUGUCGAACCAUAGUUAAAUCAAA [g10:g15:cont:t1A]”, the “pre-steady-state target cleavage rate” value under setting [1] is 0.000314 ± 0.022.

Take AGGACCUACAGCUUCCAUAGUAUUUACAAA: the “pre-steady-state target cleavage rate” value under setting [1] worked out at 0.0006 ± 0.011.

Consider UCCACCUACAGCUUGCAUUGUAUUUACAAA, for which the “pre-steady-state target cleavage rate” value under setting [1] amounted to 0.0016 ± 0.0036.

Turning to UCGACCUACAGCUUGCAUAGAUUUUACAAA, the “pre-steady-state target cleavage rate” value under setting [1] came out at 0.000857 ± 0.0072.

Take UGGACCUACAGCUUGCAAAGUAUUUUCAAA: the “pre-steady-state target cleavage rate” value under setting [1] turned out to be 0.00295 ± 0.0031.

UCGACCUACAGCUACCAUAGUAUUUACAAA: the “pre-steady-state target cleavage rate” value under setting [1] was 0.000317 ± 0.0088.

Consider UCCACCUACAGCUUGCAAUGUAUUUAGAAA, for which, under setting [1], the “pre-steady-state target cleavage rate” value came out at 0.00114 ± 0.0052.

Turning to UCGACCUACAGCUUGCAUAGUAAUUAGAAA, under setting [1], the “pre-steady-state target cleavage rate” value is 0.00244 ± 0.0032.

As for UCCUGGAACAGCUUGCUUAGUAUUUACAAA, the “pre-steady-state target cleavage rate” value under setting [1] amounted to 0.00253 ± 0.0036.

On to UGCUGCUACAGCUUGCAUAGUAUUUUCAAA, for which the “pre-steady-state target cleavage rate” value under setting [1] was determined as 0.00133 ± 0.004.

For the sequence AGGACCUACAGCUUCGUUAGUAUUUAGAAA, under setting [1], the “pre-steady-state target cleavage rate” value worked out at 0.00084 ± 0.0062.

In the case of “AGGACCUACAGCUUGCAUUCAUAAAUCAAA [g13:g30:cont:t1A]”, under setting [1], the “pre-steady-state target cleavage rate” value was found to be 0.000719 ± 0.01.

As to UGGACCUUGUGCUUGCAUAGUAUUUUCAAA, the “pre-steady-state target cleavage rate” value under setting [1] is 0.0018 ± 0.0033.

For UGGACCUACAGCUUGCAUUCUAUUUUCAAA, the “pre-steady-state target cleavage rate” value under setting [1] came to 0.000194 ± 0.011.

With UCCACCUACAGCUUGCAUAGUAAAUAGAAA, the “pre-steady-state target cleavage rate” value under setting [1] was found to be 0.00119 ± 0.0056.

For the sequence UCCACCUACAGCAUGCAUAGUAUUUAGAAA, under setting [1], the “pre-steady-state target cleavage rate” value came out at 0.00164 ± 0.0044.

On to UCCACCUACAGCUUGGUUAGUAUUUAGAAA, for which the “pre-steady-state target cleavage rate” value under setting [1] amounted to 0.000972 ± 0.0043.

On to UCCACCUACAGCUUCCAUAGUAUUUAGUAA, for which the “pre-steady-state target cleavage rate” value under setting [1] was determined as 0.00145 ± 0.0044.

ACCUCCUACAGCUUGCAUAGUAUUUUCAAA: the “pre-steady-state target cleavage rate” value under setting [1] amounted to 0.00225 ± 0.0042.

Regarding UGGACCUACAGCUUGCAUAGUUAAUAGAAA, the “pre-steady-state target cleavage rate” value under setting [1] was found to be 0.00058 ± 0.0054.

With UCCUGGAUGUCGAACCAUAGUAUCUUAGUUA, under setting [2], the “pre-steady-state target cleavage rate” value stood at 0.000275 ± 0.017.

With UCCUGCUACAGCUUGACAUAGUAUUUAGUUA, the “pre-steady-state target cleavage rate” value under setting [1] turned out to be 0.00226 ± 0.0025.

As to UCGACCUACAGCUUGCAUAGUAUAAUCAAA, the “pre-steady-state target cleavage rate” value under setting [1] was 0.000494 ± 0.009.

Turning to UCCACCUACAGCUUGCUUAGUAUUAAGUUA, the “pre-steady-state target cleavage rate” value reads like this: under setting [2], 0.31 ± 0.03; under setting [1], 0.00763 ± 0.0016.

UGGACCUACAGCAUGGAUAGUAUUUAGUUA: the “pre-steady-state target cleavage rate” value turned out to be 1.47 ± 0.1 under setting [2] and 0.0301 ± 0.0054 under setting [1].

In the case of UCCUGGAUGUGCUUGAUAGUAUUUAGUUA, the “pre-steady-state target cleavage rate” value reads like this: under setting [2], 0.00346 ± 0.0047; under setting [1], 0.00142 ± 0.0048.

For UCCACCAACAGCAUGCAUAGUAUUUAGUUA, the “pre-steady-state target cleavage rate” value came out at 0.943 ± 0.032 under setting [2] and 0.0211 ± 0.0046 under setting [1].

UGGACCUACAGGUUGCAUAGUAAUUAGUUA: the “pre-steady-state target cleavage rate” value was found to be 0.731 ± 0.055 under setting [2] and 0.0177 ± 0.0042 under setting [1].

For AGGAGCAACAGCUUGCAUAGUAUUUAGUUA, the “pre-steady-state target cleavage rate” value is, setting by setting: under setting [2], 1.67 ± 0.069; under setting [1], 0.0907 ± 0.016.

As for UCGACCUACAGCCUUGCAUAGUAUUUAGUUA, the “pre-steady-state target cleavage rate” value by setting is: under setting [2], 1.28 ± 0.046; under setting [1], 0.0668 ± 0.014.

For UCGACCUACAGCUUGCAUAGUAAUAAGUUA, the “pre-steady-state target cleavage rate” value reads like this: under setting [2], 0.444 ± 0.047; under setting [1], 0.002 ± 0.0034.

Consider UGGACCUACAGCUUCGUUAGUAUUUUCAAA, for which the “pre-steady-state target cleavage rate” value runs as follows: under setting [2], 0.000805 ± 0.0076; under setting [1], 0.000617 ± 0.0084.

Take UGGACUCUACAGCUUGCAUAGUAUUUAGUUA: the “pre-steady-state target cleavage rate” value stood at 1.4 ± 0.066 under setting [2] and 0.0856 ± 0.017 under setting [1].

UGGACCUACCGCUUGCAUAGUAUUUAGUUA: the “pre-steady-state target cleavage rate” value under setting [2] was determined as 1.57 ± 0.11 and the “pre-steady-state target cleavage rate” value under setting [1] was determined as 0.0558 ± 0.0098.

With UGGACCUACCAGCUUGCAUAGUAUUUAGUUA, the “pre-steady-state target cleavage rate” value stood at 1.25 ± 0.1 under setting [2] and 0.0599 ± 0.013 under setting [1].

As for UCGACCUUCAGCUUGCAUAGUAUUUAGAAA, the “pre-steady-state target cleavage rate” value was 0.659 ± 0.064 under setting [2] and 0.0103 ± 0.0029 under setting [1].

UCCACCUACAGCUUGCAUACUAUAUAGUUA: the “pre-steady-state target cleavage rate” value under setting [2] was 0.178 ± 0.022 and the “pre-steady-state target cleavage rate” value under setting [1] was 0.0112 ± 0.003.

With UCCACCUAGUCCUUGCAUAGUAUUUAGUAA, the “pre-steady-state target cleavage rate” value was determined as 0.142 ± 0.021 under setting [2] and 0.00921 ± 0.0015 under setting [1].

In the case of UGGUCCUACAGCUUGCAAAGUAUUUAGUUA, the “pre-steady-state target cleavage rate” value is, setting by setting: under setting [2], 1.13 ± 0.04; under setting [1], 0.0413 ± 0.0067.

For the sequence AGGACCCUACAGCUUGCAUAGUAUUUAGUUA, the “pre-steady-state target cleavage rate” value under setting [2] came out at 1.24 ± 0.083 and the “pre-steady-state target cleavage rate” value under setting [1] stood at 0.0716 ± 0.012.

In the case of AGGACCUACACGCUUGCAUAGUAUUUAGUUA, the “pre-steady-state target cleavage rate” value under setting [2] worked out at 1.1 ± 0.065 and the “pre-steady-state target cleavage rate” value under setting [1] worked out at 0.0703 ± 0.01.

UCGACCUACGGCUUGCAUAGUAUUUAGUUA: the “pre-steady-state target cleavage rate” value is, setting by setting: under setting [2], 1.35 ± 0.053; under setting [1], 0.069 ± 0.011.

Consider UGGACCUACAGCUUGCUAUGUAUUUACAAA, for which the “pre-steady-state target cleavage rate” value runs as follows: under setting [2], 0.00302 ± 0.0033; under setting [1], 0.000644 ± 0.0058.

For ACCUCCUACAGCUUGCAUAGUAUUUAGAAA, the “pre-steady-state target cleavage rate” value by setting is: under setting [2], 0.54 ± 0.061; under setting [1], 0.00602 ± 0.0029.

With UGGACCUCCAGCUUGCAUAGUAUUUAGUUA, the “pre-steady-state target cleavage rate” value runs as follows: under setting [2], 1.39 ± 0.054; under setting [1], 0.08 ± 0.014.

Consider AGGACCUACAGCAAGCAUAGUAUUUAGUUA, for which the “pre-steady-state target cleavage rate” value is, setting by setting: under setting [2], 1.2 ± 0.069; under setting [1], 0.0105 ± 0.0035.

For UGGACCUACAGCUUCCAUAGUAUUUUCAAA, the “pre-steady-state target cleavage rate” value was found to be 0.00202 ± 0.0044 under setting [2] and 0.000626 ± 0.0042 under setting [1].

As for UCGACCAACAGCUUGGAUAGUAUUUAGUUA, the “pre-steady-state target cleavage rate” value reads like this: under setting [2], 1.67 ± 0.045; under setting [1], 0.0693 ± 0.011.

As to UGGACCUACAGCUUGCAAUAGUAUUUAGUUA, the “pre-steady-state target cleavage rate” value by setting is: under setting [2], 0.0655 ± 0.011; under setting [1], 0.00192 ± 0.0039.

Turning to “UCCUGGAUGUCGAUGCAUAGUAUUUAGUUA [g2:g17:cont:t1A]”, the “pre-steady-state target cleavage rate” value under setting [2] amounted to 0.0169 ± 0.005 and the “pre-steady-state target cleavage rate” value under setting [1] was 0.00189 ± 0.0033.
